PubChem BioAssay AID2685 (National Center for Advancing Translational Sciences (NCATS), 2010)
Screen size: about 320,000 compounds; about 2,100 (0.66%) were called active. Inconclusive results, whose numbers are uncertain, are shown with a selection of clear calls. Calls follow the shape of the dose curve; as a rule, active = well fitted inhibition curve with a large enough effect in the signal ratio, with a control signal flat (not every such curve was filed as active); inconclusive = small, poorly fitted or top-dose-only effect, or effect the other way, or a change in a side signal; inactive = flat fitted curve, though single readings scatter; the % refers to the signal ratio. A potency beside an inconclusive call is a rough fit, not a confirmed value.

experiment: qHTS Assay for Lipid Storage Modulators in Drosophila S3 Cells; details: BODIPY lipid droplet fluorescence, 18-24 h, cells fed with added oleic acid; lipid storage change, negative = inhibition: at 46.1 µM (top of the series) unless noted
Outline: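 Drosophila S3 cells got compounds at several concentrations plus oleic acid (400 uM solution). Laser-scanning cytometry with 488 nm excitation read lipid droplets at 500-530 nm and cells at 575-640 nm. Percent activity was relative to 20 uM Triacsin C.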
% is scaled to controls: 0 for no effect and ±100 for the full control effect; potency is read from the fitted curve at half-maximal effect.

SMILES	lipid storage change, negative = inhibition	Potency	outcome
CC1(C)CC(=O)C(C=Nc2cccc(/N=C/C3=C(O)CC(C)(C)CC3=O)n2)=C(O)C1	inconclusive: 8.8%	–	–
COc1ccc(N(CC(=O)NCc2cccs2)S(=O)(=O)c2ccc(F)cc2)cc1	inconclusive: -12.9%	–	–
Cc1ccsc1C(=O)N1CCc2ccccc2C1	inconclusive: -13.6%	–	–
COC(=O)c1ccc(COC(=O)CCc2nc(-c3ccccc3)c(-c3ccccc3)o2)cc1	inconclusive: 82.4%	–	–
COc1ccc(COC(=O)C2=C(C)NC(=O)NC2c2ccc(OC)cc2)cc1 (configuration not stated)	inconclusive: -22%	–	–
CN(C(=O)c1ccc(NC(=O)Cc2cccc(NC(=O)C3CCN(C(=O)c4ccccc4)CC3)c2)cc1)C1CCCC1	inconclusive: -17.5%	–	–
CC(=O)NCCOc1nc(N(C)C)nc(N(C)C)n1	–	inconclusive: 2310 nM [falling, partial curve]	–
NC(=S)N/N=C/c1ccccc1OCc1cccc(Cl)c1	inconclusive: -49.3%	–	–
C=CCN(CC=C)C(=O)c1cc(Cl)ccc1[N+](=O)[O-]	inconclusive: 5.54%	–	–
CCN(CC)CCNC(=O)C1CCN(S(=O)(=O)c2c(C)noc2/C=C/c2ccccc2F)CC1	inconclusive: 27.1%	–	–
CCn1c(=O)c2sccc2n(Cc2ccccc2)c1=O	–	inconclusive: 651 nM [falling, partial curve, poor fit]	–
O=C(O)c1cccc(Cn2cc(Cl)cn2)c1	inconclusive: -9.96%	–	–
COC(=O)CN1C(=O)[C@H]2[C@@H](C3CC3)N3C(=O)CN(CCO)C(=O)[C@@]3(Cc3ccccc3)[C@H]2C1=O	inconclusive: 33.8%	–	–
O=C(COc1c(CO)cc(Br)cc1CO)NC1CCCc2ccccc21 (configuration not stated)	inconclusive: 7.67%	–	–
O=C(Cc1cccs1)Nc1cccc(C(=O)Nc2ccc(C(=O)O)cc2)c1	inconclusive: -10.5%	–	–
Cc1ccc2[nH]c(O)c(N=NC(=O)c3ccc(NS(=O)(=O)c4cccs4)cc3)c2c1	–	inconclusive: 11600 nM [falling, partial curve, poor fit]	–
O=c1oc2ccccc2n1CCn1c2ccccc2c2nc3ccccc3nc21	–	inconclusive: 411 nM [rising, full curve]	–
CC(C)(C)OC(=O)NNC(=S)NCc1ccc(Cl)cc1	inconclusive: 39%	–	–
COc1cccc(NC(=O)C2C3C=CC4(O3)C2C(=O)N(C2CC2)C4C(=O)NC2CCCCC2C)c1 (configuration not stated)	inconclusive: -24.9%	–	–
Cc1nnc(N2C(=O)C(O)=C(C(=O)c3ccco3)C2c2ccc(F)cc2)s1 (configuration not stated)	inconclusive: -27.5%	–	–
O=C(Cc1ccccc1F)Nc1ccc(SC(F)F)cc1	inconclusive: 29.2%	–	–
O=C(NCCCN1CCOCC1)c1cc(C(=O)C2CCCCC2)c[nH]1	inconclusive: 20.4%	–	–
O=C(O)c1ccc2cccc(Cl)c2c1O	inconclusive: 8.59%	–	–
CCC(=O)N1CCc2cc(S(=O)(=O)CCC(=O)N3CCN(c4ccc(F)cc4)CC3)ccc21	inconclusive: 60.9%	–	–
O=C(c1ccc(=O)oc1)N1CCCc2ccccc21	inconclusive: 31.6%	–	–
COC(=O)c1sccc1NS(=O)(=O)c1ccccc1[N+](=O)[O-]	–	–	inactive [at 46.1 µM]

SMILES	lipid storage change, negative = inhibition	Potency	outcome
COC(=O)C1=C(C)N(CCCC(=O)O)C(=O)NC1c1ccc(C(F)(F)F)cc1 (configuration not stated)	inconclusive: 36.7%	–	–
COc1ccccc1CNC(=O)COC(=O)Cc1cccs1	inconclusive: 6.2%	–	–
COc1ccc(CNC(=O)COC(=O)CN2C(=O)C(C)Oc3ccc(C)cc32)cc1 (configuration not stated)	–	inconclusive: 3260 nM [activator, partial curve]	–
CCCN1Cc2cccc(C(=O)Nc3ccc4c(c3)OCO4)c2C1=O	–	inconclusive: 58 nM [activator, full curve, poor fit]	–
CCOC(=O)c1c(C=O)c2sc(C)cc2n1C	inconclusive: 84.7%	–	–
COc1cc(C(=O)Nc2cnc(NC(=O)C(C)C)cc2C)cc(OC)c1OC	–	inconclusive: 23.1 nM [falling, full curve, poor fit]	–
COc1ccc(-c2ncc3ccccn23)cc1OC	inconclusive: -16%	–	–
COc1ccccc1NC(=O)Nc1nc(CC(=O)Nc2ccc(N(C)C)cc2)cs1	–	inconclusive: 1030 nM [activator, partial curve]	–
Cc1cc(Oc2nc3ccccn3c(=O)c2/C=C(\C#N)C(=O)NC2CCS(=O)(=O)C2)ccc1Cl (configuration not stated)	–	inconclusive: 18400 nM [falling, single point]	–
CC1=C(C(=O)Nc2ccccc2)C(c2ccco2)C(C#N)=C(SCc2ccccc2)N1 (configuration not stated)	–	inconclusive: 16400 nM [activator, partial curve, poor fit]	–
Cc1ccc(C)n1-c1ccncc1	inconclusive: 59.8%	–	–
Cc1ccc(-n2nc(C(=O)O)c(C)c(C#N)c2=O)cc1Cl	inconclusive: 31.4%	–	–
CNC(=O)CSc1nc2nc(C)cc(C)n2n1	inconclusive: -16%	–	–
Cc1ccc(Nc2nnc(SC(C)C(=O)NC3CC3)s2)cc1 (configuration not stated)	–	inconclusive: 1840 nM [activator, partial curve]	–
CCOc1ccccc1N1CCN(CC(=O)NC(C)c2ccccc2)CC1 (configuration not stated)	–	inconclusive: 6510 nM [falling, single point]	–
CN(C)C(=O)CN1C(=O)NC(c2ccccc2)(c2ccccc2)C1=O	inconclusive: -24.7%	–	–
C=CCOC(=O)N1CCN(c2cccc(C(F)(F)F)c2)CC1	inconclusive: 24.1%	–	–
S=C(c1ccc(Cl)cc1)N1CCN(Cc2ccccc2)CC1	–	inconclusive: 3660 nM [cytotoxic, full curve, poor fit]	–
CC(C)Cn1c(=S)[nH]c2cc(Cl)ccc21	inconclusive: -15.3%	–	–
CCN(CC)C(=O)CSc1nc2ccccc2c(=O)n1CC	–	inconclusive: 2310 nM [activator, partial curve]	–
CCN(c1ccccc1)S(=O)(=O)c1cc(NC(=O)COC(=O)C2CC2)ccc1Cl	inactive: 4.21%	–	–
Cc1nc(SCC(=O)NC2CC2)c2c(C)c(C)sc2n1	inconclusive: 105%	–	–
S=C(NCc1ccccc1)Nc1cccc2cnccc12	–	inconclusive: 11600 nM [falling, single point]	–
Cc1ccc[n+](CC(=O)Nc2nc3ccccc3s2)c1	inconclusive: -22.8%	–	–
CCC(=O)Nc1ccc(Cl)c(NC(=S)NC(=O)c2ccco2)c1	inconclusive: 18%	–	–

SMILES	lipid storage change, negative = inhibition	Potency	outcome
O=C1C=C(c2ccc(F)c(Cl)c2)C[C@@H](c2ccc(F)cc2)C1	inconclusive: -55.7%	–	–
CC1CCN(c2ccc(NC(=S)NC(=O)c3ccco3)cc2)CC1	inconclusive: -17.7%	–	–
CCc1c(C(C)S(=O)(=O)c2ccc(C)cc2)[nH]c(=O)n1-c1ccc(C)cc1 (configuration not stated)	–	active: 29100 nM	–
N#CC1=C(SCc2ccccc2)NC(=O)C(C#N)C12CCCC2 (configuration not stated)	–	inconclusive: 461 nM [activator, single point]	–
COc1cc2nc(SCC(N)=O)n(CCC3=CCCCC3)c(=O)c2cc1OC	–	inconclusive: 184 nM [activator, full curve, poor fit]	–
COc1ccc(OCCCC(=O)OC(C)C(=O)Nc2ccc(NC(C)=O)cc2)cc1 (configuration not stated)	–	inconclusive: 29100 nM [activator, partial curve, poor fit]	–
Cc1nc2nc(C)c(NS(=O)(=O)c3cccs3)c(=O)n2[nH]1	–	inconclusive: 1030 nM [activator, full curve]	–
CC(C)COc1cccc(C(=O)NC(=S)Nc2cccc(NC(=O)c3ccccc3Cl)c2)c1	inconclusive: 9%	–	–
COc1ccc(C2(C)NC(=O)N(CC(=O)Nc3c(C)n(C)n(-c4ccccc4)c3=O)C2=O)cc1 (configuration not stated)	–	inconclusive: 6510 nM [falling, single point]	–
CCCCN(C(=O)C1CC(=O)N(Cc2ccc(C)cc2)C1)c1c(N)n(CC(C)C)c(=O)[nH]c1=O (configuration not stated)	inconclusive: -2.54%	–	–
Cn1cccc1C(=O)c1cccc([N+](=O)[O-])c1	inconclusive: 6.93%	–	–
CCOc1ccc(C(=O)C(C)OC(=O)c2cnc(C)cn2)cc1 (configuration not stated)	inconclusive: 0.776%	–	–
CCCCSc1nnc(-c2ccc(NC(=O)CCc3ccccc3)cc2)n1C	inconclusive: -15%	–	–
COc1cc2c(cc1OC)CN(S(=O)(=O)c1ccc3c(c1)OCCO3)CC2	inconclusive: -14.2% [at 9.22 µM]	–	–
O=C(CCn1c(=O)oc2ccccc21)NCc1ccc2c(c1)OCO2	inconclusive: 81.4%	–	–
COc1cccc(C(=O)OC(C)C(=O)NCC2CCCCC2)c1 (configuration not stated)	–	inconclusive: 3260 nM [falling, partial curve]	–
CCN(CC(=O)NCc1ccc(Cl)cc1)C(=O)CCC(=O)c1ccc(C)cc1	inconclusive: -23.7%	–	–
CN(C)S(=O)(=O)c1cccc(NC(=S)N2CCCCC2CO)c1 (configuration not stated)	–	inconclusive: 92 nM [falling, full curve, poor fit]	–
Oc1cccc2ccc(Nc3ccccn3)nc12	inconclusive: -162%	–	–
CC(=O)Nc1cccc(N)c1	inconclusive: -15.5%	–	–
O=C(CCN1C(=O)C2CC=CCC2C1=O)Nc1cccc(Cl)c1 (configuration not stated)	–	inconclusive: 6510 nM [activator, partial curve, poor fit]	–
CCCOc1ccc(/C=N/NC(=O)CN2CCCCC2)cc1	inconclusive: 105%	–	–
Cc1ccc(S(=O)(=O)Nc2cc(C(=O)Nc3cc(C)cc(C)c3)ccc2Cl)cc1	inconclusive: 14%	–	–
Cc1ccc(S(=O)(=O)N2CCN(c3ccccc3)CC2)cc1C(N)=O	inconclusive: -22.5%	–	–
COc1cccc(OCC(=O)Nc2ccncc2)c1	inconclusive: -70.2%	–	–

Structures shown so far that have an aryl methoxy group (14):
SMILES	lipid storage change, negative = inhibition	Potency	outcome
COc1ccc(N(CC(=O)NCc2cccs2)S(=O)(=O)c2ccc(F)cc2)cc1	inconclusive: -12.9%	–	–
COc1ccc(COC(=O)C2=C(C)NC(=O)NC2c2ccc(OC)cc2)cc1 (configuration not stated)	inconclusive: -22%	–	–
COc1cccc(NC(=O)C2C3C=CC4(O3)C2C(=O)N(C2CC2)C4C(=O)NC2CCCCC2C)c1 (configuration not stated)	inconclusive: -24.9%	–	–
COc1ccccc1CNC(=O)COC(=O)Cc1cccs1	inconclusive: 6.2%	–	–
COc1ccc(CNC(=O)COC(=O)CN2C(=O)C(C)Oc3ccc(C)cc32)cc1 (configuration not stated)	–	inconclusive: 3260 nM [activator, partial curve]	–
COc1cc(C(=O)Nc2cnc(NC(=O)C(C)C)cc2C)cc(OC)c1OC	–	inconclusive: 23.1 nM [falling, full curve, poor fit]	–
COc1ccc(-c2ncc3ccccn23)cc1OC	inconclusive: -16%	–	–
COc1ccccc1NC(=O)Nc1nc(CC(=O)Nc2ccc(N(C)C)cc2)cs1	–	inconclusive: 1030 nM [activator, partial curve]	–
COc1cc2nc(SCC(N)=O)n(CCC3=CCCCC3)c(=O)c2cc1OC	–	inconclusive: 184 nM [activator, full curve, poor fit]	–
COc1ccc(OCCCC(=O)OC(C)C(=O)Nc2ccc(NC(C)=O)cc2)cc1 (configuration not stated)	–	inconclusive: 29100 nM [activator, partial curve, poor fit]	–
COc1ccc(C2(C)NC(=O)N(CC(=O)Nc3c(C)n(C)n(-c4ccccc4)c3=O)C2=O)cc1 (configuration not stated)	–	inconclusive: 6510 nM [falling, single point]	–
COc1cc2c(cc1OC)CN(S(=O)(=O)c1ccc3c(c1)OCCO3)CC2	inconclusive: -14.2% [at 9.22 µM]	–	–
COc1cccc(C(=O)OC(C)C(=O)NCC2CCCCC2)c1 (configuration not stated)	–	inconclusive: 3260 nM [falling, partial curve]	–
COc1cccc(OCC(=O)Nc2ccncc2)c1	inconclusive: -70.2%	–	–
